Data: article PMC8042982
These are yes or no findings as the source states them, for the method shown. Binding seen in cells or lysates may run through a third protein. Some results given as binding are weak or reduced against the parent protein; the word gives no strength. Sequences can lack the tags named with a protein.

By UniProt entry, the sequences of proteins in these tests, tags left out.
UniProt Q92993: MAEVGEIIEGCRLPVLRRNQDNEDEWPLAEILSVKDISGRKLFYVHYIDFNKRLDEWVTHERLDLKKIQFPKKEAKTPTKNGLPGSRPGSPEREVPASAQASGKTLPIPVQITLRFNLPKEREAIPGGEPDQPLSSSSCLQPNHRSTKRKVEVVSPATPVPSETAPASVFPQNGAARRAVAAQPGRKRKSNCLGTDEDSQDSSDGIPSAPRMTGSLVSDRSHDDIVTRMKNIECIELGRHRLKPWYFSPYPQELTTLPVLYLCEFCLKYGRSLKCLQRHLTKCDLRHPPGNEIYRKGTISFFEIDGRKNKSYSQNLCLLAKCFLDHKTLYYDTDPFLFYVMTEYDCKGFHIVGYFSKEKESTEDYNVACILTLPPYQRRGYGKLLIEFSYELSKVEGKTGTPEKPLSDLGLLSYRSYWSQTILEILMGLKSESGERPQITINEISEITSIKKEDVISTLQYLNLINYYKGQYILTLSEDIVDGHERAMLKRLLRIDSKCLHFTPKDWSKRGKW

Target: TIP60-HA (UniProt Q92993)
Test: co-IP; HEK293T cells co-transfected, whole cell extracts 24 h after transfection (50 mM Tris pH 8, 150 mM NaCl, 5 mM EDTA, 0.5% NP40, 1 mM DTT), sonicated; IP with anti-HA tag antibody (µMACS isolation kit for tagged proteins), eluates immunoblotted

binding: binds
B1: FE65-EGFP (protein, UniProt O00213 1-710)
chain: MSVPSSLSQSAINANSHGGPALSLPLPLHAAHNQLLNAKLQATAVGPKDLRSAMGEGGGPEPGPANAKWLKEGQNQLRRAATAHRDQNRNVTLTLAEEASQEPEMAPLGPKGLIHLYSELELSAHNAANRGLRGPGLIISTQEQGPDEGEEKAAGEAEEEEEDDDDEEEEEDLSSPPGLPEPLESVEAPPRPQALTDGPREHSKSASLLFGMRNSAASDEDSSWATLSQGSPSYGSPEDTDSFWNPNAFETDSDLPAGWMRVQDTSGTYYWHIPTGTTQWEPPGRASPSQGSSPQEESQLTWTGFAHGEGFEDGEFWKDEPSDEAPMELGLKEPEEGTLTFPAQSLSPEPLPQEEEKLPPRNTNPGIKCFAVRSLGWVEMTEEELAPGRSSVAVNNCIRQLSYHKNNLHDPMSGGWGEGKDLLLQLEDETLKLVEPQSQALLHAQPIISIRVWGVGRDSGRERDFAYVARDKLTQMLKCHVFRCEAPAKNIATSLHEICSKIMAERRNARCLVNGLSLDHSKLVDVPFQVEFPAPKNELVQKFQVYYLGNVPVAKPVGVDVINGALESVLSSSSREQWTPSHVSVAPATLTILHQQTEAVLGECRVRFLSFLAVGRDVHTFAFIMAAGPASFCCHMFWCEPNAASLSEAVQAACMLRYQKCLDARSQASTSCLPAPPAESVARRVGWTVRRGVQSLWGSLKPKRLGAHTP
